# According to PubChem BioAssay AID493014 (National Center for Advancing Translational Sciences (NCATS), 2011):
# The other results are listed elsewhere or left out. These are further read-outs of the screen, such as a control signal, another cell line or another target. No call is given for them. The list favours compounds with an active or inconclusive main result. Words in brackets tell the shape of the fitted curve; partial curves, single points and poor fits give uncertain potencies.
# Assay: qHTS Assay to Find Inhibitors of Chronic Active B-Cell Receptor Signaling
# Conditions: ABC-DLBCL IkBa-CBG/CBR reporter, luminescence ratio (green luciferase fused to IkBa over red control in TMD8 lymphoma cells), 4 h
# Summary of the method: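 Concentration-response series (up to 46 uM) were applied to TMD8 dual-reporter cells for 4 h at 37C with doxycycline. Green/red ratio, after filter-overlap correction, defined %Activity; red signal alone was normalised to basal cells and zero luminescence.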
# [1] = measured here: CBR red luminescence, cell number
# [2] = measured here: IkBa-CBG green luminescence
structure (smiles),measurement,setting,value
O=C(NC1(C(F)(F)F)NC(=O)N(C2CCCCC2)C1=O)C1CC1 (stereo not given),AC50,[1],"0.631 µM [rising, full curve, poor fit]"
O=C(CSc1nc(SCC(=O)NCc2ccccc2)n(-c2ccccc2)n1)NCc1ccccc1,AC50,[1],"6.51 µM [falling, partial curve]"
COc1ccc2oc(-c3ccccc3)c(C(=O)O)c2c1,AC50,[1],"14.1 µM [falling, partial curve, poor fit]"
Cc1ccc(CSc2nc3nc(C)cc(C)c3c(=O)[nH]2)cc1,AC50,[1],"35.5 µM [falling, single point]"
CSc1nc(N)nc(SCC(=O)c2ccc(C)cc2)c1C#N,AC50,[1],"6.31 µM [falling, partial curve]"
CC(C)(NO)/C(=N\O)c1ccc(Cl)cc1,AC50,[1],"12.6 µM [rising, partial curve, poor fit]"
COc1ccc(C2=NN(C(=O)CCC(=O)O)C(c3ccccc3OC)C2)cc1 (stereo not given),AC50,[1],"14.1 µM [falling, partial curve]"
Fc1ccccc1COc1ccccc1CNCc1ccncc1,AC50,[1],"28.2 µM [falling, single point]"
O=C(O)CNC(=O)C(CS)Cc1ccccc1 (stereo not given),AC50,[2],"4.11 µM [falling, partial curve, poor fit]"
O=C(CSCc1ccccc1Cl)N1CCN(c2ccccn2)CC1,AC50,[1],"14.6 µM [rising, partial curve, poor fit]"
Cc1ccc2c(c1)C1CC(C)(O2)N(c2cccc(C(=O)N3CCN(c4ccccn4)CC3)c2)C(=O)N1 (stereo not given),AC50,[1],"0.251 µM [rising, full curve, poor fit]"
CCCN(c1ccccc1F)S(=O)(=O)c1cc(-c2cc(C)no2)ccc1OC,AC50,[1],"14.1 µM [falling, partial curve, poor fit]"
Cc1nonc1C(=O)N/N=C/c1ccc(O)c(O)c1,AC50,[1],"29.1 µM [falling, single point]"
O=C(C1CCCCC1)N1CCN(S(=O)(=O)c2ccc(Br)cc2)CC1,AC50,[1],"0.562 µM [falling, full curve, poor fit]"
CCN(CC)C(=O)CC(c1ccc(N(C)C)cc1)c1c(OC)cc(OC)c2ccc(=O)oc12 (stereo not given),AC50,[1],"0.355 µM [rising, full curve, poor fit]"
O=[N+]([O-])c1cccc(CN2CCN(c3ncccn3)CC2)c1,AC50,[1],"35.5 µM [rising, single point]"
COc1ccc(NC(=O)Cn2nnc(C(=O)NCc3ccc4c(c3)OCO4)c2N)c(OC)c1,AC50,[1],"17.8 µM [rising, single point]"
N#Cc1c(N2C(=O)c3ccc(C(=O)O)cc3C2=O)sc2c1CCCC2,AC50,[1],"17.8 µM [falling, partial curve, poor fit]"
O=C(NCc1ccco1)C1CCN(Cc2ccc(F)cc2)CC1,AC50,[1],"32.6 µM [falling, single point]"
CS(=O)(=O)N(CC(=O)Nc1ccc(F)c(F)c1)c1cccc([N+](=O)[O-])c1,AC50,[1],"3.66 µM [falling, partial curve, poor fit]"
O=C1N/C(=N\N=C\c2cccs2)SC1Cc1cccc(Cl)c1 (stereo not given),AC50,[1],"7.31 µM [rising, partial curve]"
same,AC50,[2],"20.6 µM [falling, single point]"
Cc1ccc2c(c1)-n1c(nc3ccc(C)cc3c1=O)C(Cc1ccc(O)cc1)NC2=O (stereo not given),AC50,[1],"10.3 µM [rising, partial curve]"
O=C(c1cn(-c2ccccc2)nc1-c1cccnc1)N1CCCCC1,AC50,[1],"10 µM [rising, partial curve, poor fit]"
CCCNC(=O)Cc1c(C)n(C(=O)c2ccc(Cl)cc2)c2ccc(OC)cc12,AC50,[1],"35.5 µM [falling, single point]"
COc1ccc(NS(=O)(=O)c2cc(NC(=O)CNC(=O)c3cccc(OC)c3)ccc2C)cc1,AC50,[1],"3.66 µM [rising, full curve, poor fit]"
same,AC50,[2],"25.9 µM [falling, partial curve, poor fit]"
Cc1ccc(Cn2nnc3c(=O)[nH]c(C4CCN(S(=O)(=O)c5ccc(F)cc5)CC4)nc32)cc1,AC50,[1],"5.8 µM [falling, partial curve]"
same,AC50,[2],"18.4 µM [rising, partial curve]"
Cc1ccnc(NC(=O)CCC(=O)N(CC(=O)NC(C)(C)C)c2ccc3c(c2)OCO3)c1,AC50,[1],"0.112 µM [falling, full curve, poor fit]"
CC1=C(C(=O)N2CCCC(C(=O)c3cccc4ccccc34)C2)OCCO1 (stereo not given),AC50,[1],"15.8 µM [falling, single point]"
CC1=C(C(=O)OCc2ccccc2)C(c2cccs2)NC(=O)N1CCCC(=O)O (stereo not given),AC50,[1],"16.4 µM [rising, single point]"
COc1ccc(C(=O)NCC(=O)NCC(=O)OCC(=O)C(C)(C)C)cc1,AC50,[1],"7.31 µM [rising, partial curve, poor fit]"
O=C(Nc1ccc(-c2csnn2)cc1)C(Cl)(Cl)Cl,AC50,[1],"35.5 µM [falling, single point]"
CCN(C(=O)c1ccccc1F)c1nc(-c2ccc(OC)cc2)cs1,AC50,[1],"12.6 µM [rising, partial curve]"
COc1ccc(NC(=O)Nc2cc(C)ccc2F)cc1,AC50,[1],"23.1 µM [falling, partial curve]"
Cc1cccn2c(=O)c3cc(C(=O)NC(C)C)c(=N)n(Cc4ccncc4)c3nc12,AC50,[1],"2.59 µM [rising, partial curve, poor fit]"
Cc1cc(C)n(CCC(=O)Nc2ccc3c(c2)OCCO3)n1,AC50,[1],"22.4 µM [falling, partial curve, poor fit]"
C=CCn1c(SCC(O)Cn2c3ccccc3c3ccccc32)nnc1-c1ccco1 (stereo not given),AC50,[1],"0.366 µM [falling, full curve, poor fit]"
COc1ccc(N=C(NN)c2ccc3ccccc3n2)cc1,AC50,[1],"3.66 µM [rising, partial curve, poor fit]"
CCOC(=O)c1c(NC(=O)COC(=O)c2ccccn2)sc2c1CCC2,AC50,[1],"29.1 µM [rising, single point]"
Cc1cc(C)cc(OCC(=O)O/N=C(\N)c2ccccn2)c1,AC50,[1],"20.6 µM [falling, partial curve]"
COc1ccccc1N(CC(O)Cn1c2ccccc2c2ccccc21)S(=O)(=O)c1ccccc1 (stereo not given),AC50,[1],"16.4 µM [falling, partial curve, poor fit]"
O=C(OCC(=O)N1CCc2ccccc2C1)c1c(F)cccc1Cl,AC50,[1],"2.59 µM [rising, partial curve, poor fit]"
Cc1ccc(NC(=O)COn2nnc3ccc(S(=O)(=O)N(C)C)cc32)cc1F,AC50,[1],"18.4 µM [falling, single point]"
CC(Sc1nc(-c2ccccc2)cc(=O)[nH]1)C(=O)O (stereo not given),AC50,[1],"0.146 µM [falling, full curve, poor fit]"
Cc1ccc2c(C)nc(NC3=NCN(Cc4ccccc4)CN3)nc2c1,AC50,[1],"29.1 µM [falling, single point]"
Cc1cc(NC(=O)/C=C/C(=O)N(c2ccccc2C)C(C(=O)NC2CCCC2)c2ccc(F)cc2)no1 (stereo not given),AC50,[1],"7.08 µM [falling, partial curve, poor fit]"
Cc1ccc(NC(=O)CC2COc3ccccc3O2)cc1 (stereo not given),AC50,[1],"0.562 µM [rising, full curve, poor fit]"
O=c1cc(/C=C/c2ccccc2)oc2ccccc12,AC50,[1],"18.4 µM [falling, single point]"
same,AC50,[2],"23.1 µM [falling, partial curve, poor fit]"
Cc1cc(C(=O)NN=Cc2c(C)[nH]c3ccccc23)c(C)o1,AC50,[1],"14.6 µM [falling, partial curve, poor fit]"
COc1ccc(-c2cc(C(=O)Nc3cccc(O)c3)no2)cc1,AC50,[1],"10 µM [falling, partial curve]"
NC(=O)COc1ccc(=O)n(-c2ccccc2)n1,AC50,[1],"29.1 µM [rising, single point]"
C#CCOCCOCCOCCNc1nc(N2CCN(C(=O)CCCCCCCCCCNC(=O)Cn3cc(C[C@@H](C)O)nn3)CC2)nc(N2CCN(C(=O)CCCCCCCCCCNC(=O)[C@@H]([C@H](C)O)n3cc(C)nn3)CC2)n1,AC50,[1],"4.11 µM [rising, full curve]"
CC(C)(C)c1ccc(OC2=CS(=O)(=O)c3ccccc32)cc1,AC50,[1],"1.84 µM [rising, partial curve]"
CCCC(=O)NC(=S)Nc1cccc(NC(=O)c2ccccc2)c1,AC50,[1],"11.2 µM [falling, partial curve]"
O=C(CN1CCC(n2nnc3cc(C(F)(F)F)ccc32)CC1)Nc1ccc2c(c1)OCCO2,AC50,[1],"35.5 µM [falling, single point]"
COc1ccccc1N1CCN(C(=O)C(=O)c2cn(CC(=O)N3CCCCCC3)c3ccccc23)CC1,AC50,[1],"11.2 µM [falling, single point]"
CCCCC(=O)Nc1cc([N+](=O)[O-])ccc1F,AC50,[1],"25.1 µM [falling, single point]"
N#Cc1ccccc1Sc1ccccc1C(=O)OCc1nnc(-c2ccccc2)o1,AC50,[1],"29.1 µM [falling, single point]"
CSc1nc(N)nc(SCC(=O)Nc2cccc(F)c2)c1C#N,AC50,[1],"2.31 µM [falling, full curve]"
Cc1ccc(OCCCC(=O)NNC(=O)c2ccccn2)cc1,AC50,[1],"29.1 µM [rising, single point]"
Cc1ccc(C(=O)O/N=C(\N)c2cccnc2)cc1[N+](=O)[O-],AC50,[1],"2.31 µM [rising, full curve]"
CC(C)c1ccc(Nc2cnn(C34CC5CC(CC(CC(=O)O)(C5)C3)C4)c(=O)c2Cl)cc1,AC50,[1],"14.6 µM [rising, partial curve, poor fit]"

# A portion of the results above, for reference:
structure (smiles),measurement,setting,value
O=C(NCc1ccco1)C1CCN(Cc2ccc(F)cc2)CC1,AC50,[1],"32.6 µM [falling, single point]"
CS(=O)(=O)N(CC(=O)Nc1ccc(F)c(F)c1)c1cccc([N+](=O)[O-])c1,AC50,[1],"3.66 µM [falling, partial curve, poor fit]"
O=C1N/C(=N\N=C\c2cccs2)SC1Cc1cccc(Cl)c1 (stereo not given),AC50,[1],"7.31 µM [rising, partial curve]"
same,AC50,[2],"20.6 µM [falling, single point]"
